This passage reports binding results from PMC2219997.

The target of test [1] is Etk-NM (Etk, an E. coli receptor tyrosine kinase, expressed without Mistic) (E. coli) (UniProt P38134). Description: AUC; sedimentation velocity, 40,000 rpm, 20°C, absorbance scans; Etk-NM extracted by 18 mM FC12, in 2 mM FC12; 0.8 OD in 50 mM NaCl, 20 mM Tris, pH 7.5; two samples, with (D2O, 1.0260 g/cm^3) and without (1.0105 g/cm^3) density adjustment; one-component finite element fit; both purified.

The target of test [2] is T1, EnvZ, a histidine kinase receptor from E. coli (E. coli), P0AEJ4.
T1 chain: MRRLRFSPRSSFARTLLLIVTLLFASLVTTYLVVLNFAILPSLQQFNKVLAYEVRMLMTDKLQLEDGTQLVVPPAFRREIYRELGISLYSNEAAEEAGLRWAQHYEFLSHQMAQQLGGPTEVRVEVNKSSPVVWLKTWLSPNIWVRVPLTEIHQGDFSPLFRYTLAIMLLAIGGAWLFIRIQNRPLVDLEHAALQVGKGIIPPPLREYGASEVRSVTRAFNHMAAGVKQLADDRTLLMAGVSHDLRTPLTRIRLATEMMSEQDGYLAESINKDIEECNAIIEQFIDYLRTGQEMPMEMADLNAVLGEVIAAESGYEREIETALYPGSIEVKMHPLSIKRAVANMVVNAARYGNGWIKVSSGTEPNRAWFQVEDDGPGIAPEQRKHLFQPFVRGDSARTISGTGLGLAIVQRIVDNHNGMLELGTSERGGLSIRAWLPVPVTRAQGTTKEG
Put plainly: AUC; sedimentation velocity, 40,000 rpm, 20°C, absorbance scans; EnvZ extracted by 20 mM DPh and exchanged with 0.5 mM DDM; 0.8 OD in 50 mM NaCl, 20 mM Tris, pH 7.5; one-component finite element fit, Tanford equation with the constraint 0 < Md/Mp < 2; both purified. As to conditions: remark: other sources report otherwise.

These are yes or no findings as the source states them, for the method shown. For some assays here: Sequences can lack the tags named with a protein.

B1: Etk-NM (Etk, an E. coli receptor tyrosine kinase, expressed without Mistic) (receptor, UniProt P38134 1-726)
chain: MTTKNMNTPPGSTQENEIDLLRLVGELWDHRKFIISVTALFTLIAVAYSLLSTPIYQADTLVQVEQKQGNAILSGLSDMIPNSSPESAPEIQLLQSRMILGKTIAELNLRDIVEQKYFPIVGRGWARLTKEKPGELAISWMHIPQLNGQDQQLTLTVGENGHYTLEGEEFTVNGMVGQRLEKDGVALTIADIKAKPGTQFVLSQRTELEAINALQETFTVSERSKESGMLELTMTGDDPQLITRILNSIANNYLQQNIARQAAQDSQSLEFLQRQLPEVRSELDQAEEKLNVYRQQRDSVDLNLEAKAVLEQIVNVDNQLNELTFREAEISQLYKKDHPTYRALLEKRQTLEQERKRLNKRVSAMPSTQQEVLRLSRDVEAGRAVYLQLLNRQQELSISKSSAIGNVRIIDPAVTQPQPVKPKKALNVVLGFILGLFISVGAVLARAMLRRGVEAPEQLEEHGISVYATIPMSEWLDKRTRLRKKNLFSNQQRHRTKNIPFLAVDNPADSAVEAVRALRTSLHFAMMETENNILMITGATPDSGKTFVSSTLAAVIAQSDQKVLFIDADLRRGYSHNLFTVSNEHGLSEYLAGKDELNKVIQHFGKGGFDVITRGQVPPNPSELLMRDRMRQLLEWANDHYDLVIVDTPPMLAVSDAAVVGRSVGTSLLVARFGLNTAKEVSLSMQRLEQAGVNIKGAILNGVIKRASTAYSYGYNYYGYSYSEKE
With B1, in test [1], the binding entry is reported as “no binding (tested: 0.8 OD)”.

B2: EnvZ, a histidine kinase receptor from E. coli, P0AEJ4 1-450 (receptor)
chain: T1 chain
Turning to B2, the binding result in test [2] is “no binding (tested: 0.8 OD)”.
